Patent US7683055B2, “Lanthionine-related compounds for the treatment of inflammatory diseases” (Oklahoma Medical Research Foundation, priority 2006, dated 2010)

Test system: human PB monocytes
Test: intracellular TNFα in human peripheral blood monocytes by flow cytometry
Type: cell-based
Description: Identification of TNFα positive monocytes in peripheral blood by flow cytometry: PB monocytes expressing TNF in response to LPS or PG can be identified and counted using flow cytometry with fluorescent antibodies to stain TNFα. To identify the percentage of monocytes expressing TNFα, PB was stimulated with LPS or PG, stained for surface markers to distinguish monocytes from other leukocytes, and stained for intracellular TNFα to identify monocytes expressing TNFα. The percentage of monocytes positive for TNFα was compared among samples stimulated with LPS, PG, with and without pretreatment with (R)-LKE1, and non-stimulated samples.
The fluorescent antibodies used to identify monocytes surface markers were anti-human CD14-phycoerythrin (PE) and andtiCD16b-fluorescein isothyocyanate (FITC), based on staining intensity for each marker. Monocytes are positive for CD14 and negative for CD16b. This method of separating monocytes from neutrophils was confirmed by sorting cells based on CD14/CD16b intensity, preparing slides, staining with May-Grunwald Giemsa and confirming by morphology.
For analysis of CD14 positive, CD16b negative cells we used dot plots. We first excluded lymphocytes from the analysis by their forward scatter (FSC) and side scatter (SSC) properties, drawing a monocyte/neutrophil gate to exclude lymphocytes (not shown). We then identified CD14+, (y-axis) CD16b− (x-axis) cells by comparison with an unstained sample.
A third dye, PE-Cye7 was used for intracellular cytokine staining of TNFα. The TNFα positive monocytes were identified on a second dot plot of SSC vs. TNFα PE-Cye7 for monocytes only. Cells were counted as positive for TNFα expression if the intensity of PE-Cye7 was greater than in the non-stimulated control. The percent of TNFα positive monocytes was calculated using number positive/total number of monocytes.
PB, heparinized, was diluted 1:3 with DMEM. Diluted blood was placed in 1.0 ml aliquots into wells of a non tissue culture plate. PB was pre-incubated at 37° C. for one hour with LKE (1 mM) or the diluent DMSO (10 μl). […]

**Q.** For CCOC(=O)[C@@H]1CSCC(C(=O)O)=N1 [(R)-LKE1], which “total number of monocytes per sample of 10,000 cells” value (1 mM pre-incubation, PG 10 ug/ml) is on record?
**A.** Its value is 527.

**Q.** And the “total number of monocytes per sample of 10,000 cells” value (1 mM pre-incubation, Ultra Pure LPS 1 μg/ml)?
**A.** Its value is 471.

**Q.** What about the “total number of monocytes per sample of 10,000 cells” value (1 mM, no stimulus) of the same molecule?
**A.** The value was 727.
